Series [1] in a line: In situ absorption from rat intestinal loop. It counts as in vivo, rats of Wistar strain. The conditions noted are these: rat jejunal loop, 20 mg/kg; only deesterified Compound (28) detected. Here is the method: 7-week-old male rats of Wistar strain were used after fasting overnight. After anesthetizing the animals with ether, the intestine was exteriorized and an acute loop of 30 cm length was prepared from the upper part of jejunum by ligature of both ends. 0.2% physiological saline solutions of the test compounds were injected at a dose of 20 mg/kg into the loop with a syringe, and the loop was returned. About 0.4 ml blood was taken from the vena jugularis at 10, 30, 60 and 120 minutes after dosing.

The nature of series [2]: Oral absorption study in mice. Format: in vivo, mice of ddY strain. The conditions noted are these: 100 mg/kg, only deesterified Compound (28) detected. The method, then: 5-week-old male mice of ddY strain were used after fasting overnight. The test compounds in 1% physiological saline solution at a dose of 100 mg/kg were administered orally to a group of 2 mice. Blood was taken from the vena jugularis at 15, 30, 60 and 120 minutes after dosing.

Consider `C[C@@H](O)[C@H]1C(=O)N2C(C(=O)OCOC(=O)C(C)(C)C)=C(SC3CN(C4=NCCS4)C3)[C@H](C)[C@H]12` [Compound (32), pivaloyloxymethyl (1R,5S,6S)-2-[1-(1,3-thiazolin-2-yl)azetidin-3-yl]thio-6-[(R)-1-hydroxyethyl]-1-methyl-carbapen-2-em-3-carboxylate], for which the “plasma level of the administered ester itself” value in series [1] and in series [2] was “undetectable” each time.
